Consider 1 substance from article doi:10.1101/2025.03.28.645892.

Test [1] concerns the target T1, Arabidopsis thaliana NPL4 (Arabidopsis thaliana) (UniProt O82264).
T1 sequence (chain, Alexa-488 dye label in the MST experiments only): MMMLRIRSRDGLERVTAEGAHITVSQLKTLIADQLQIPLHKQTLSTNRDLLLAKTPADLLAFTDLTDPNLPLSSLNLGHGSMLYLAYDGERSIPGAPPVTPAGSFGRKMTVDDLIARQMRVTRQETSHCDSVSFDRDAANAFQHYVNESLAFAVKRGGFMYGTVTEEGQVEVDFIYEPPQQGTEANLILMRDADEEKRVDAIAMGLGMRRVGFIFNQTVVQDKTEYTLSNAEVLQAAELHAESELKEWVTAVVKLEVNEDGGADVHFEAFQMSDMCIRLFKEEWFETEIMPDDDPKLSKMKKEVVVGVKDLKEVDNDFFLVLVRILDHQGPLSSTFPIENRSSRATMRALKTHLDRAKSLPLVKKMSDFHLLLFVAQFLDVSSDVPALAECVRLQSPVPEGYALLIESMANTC
The test can be described thus: MST.

In test [2] the target is T1, Arabidopsis thaliana NPL4 (Arabidopsis thaliana). Kind of test: MST. The source holds these as a separate data set.

Like-named read-outs stand apart in the source and are kept apart here. These are yes or no findings as the source states them, for the method shown.

Take Arabidopsis thaliana UFD1A: the binding entry in test [1] and in test [2] was “no binding (tested: Kd > 200 µM)” each time.
